Results published in PubChem BioAssay AID1439 (NMMLSC, 2008).
Hit rate of the full screen: of about 220,000 compounds, about 770 (0.35%) were called active. The shares of active, inactive and inconclusive entries below differ from those in the screen. No stated cut-off is given here; in the data, active means binding response below about 49% or above about 150%; inconclusive means no clear call, values can overlap the other calls; inactive means in between.

Amino acid sequences for entries named in this document (tags omitted).
UniProt P09471, whole entry, looked up: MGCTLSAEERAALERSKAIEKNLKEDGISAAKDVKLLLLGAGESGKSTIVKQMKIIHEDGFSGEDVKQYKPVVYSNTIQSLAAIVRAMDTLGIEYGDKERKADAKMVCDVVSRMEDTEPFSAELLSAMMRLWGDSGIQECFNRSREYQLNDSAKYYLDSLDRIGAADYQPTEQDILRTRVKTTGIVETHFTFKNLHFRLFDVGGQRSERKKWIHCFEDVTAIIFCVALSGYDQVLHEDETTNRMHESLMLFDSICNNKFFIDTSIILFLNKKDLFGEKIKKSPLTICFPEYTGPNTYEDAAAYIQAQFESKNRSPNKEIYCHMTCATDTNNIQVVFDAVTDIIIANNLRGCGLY

Each compound was assayed against Guanine nucleotide-binding protein G(o) subunit alpha (Homo sapiens) (UniProt P09471) (assay: RGS7-Galphao binding modulators, primary screen, biochemical, multiplexed bead flow cytometry (AID 1439;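 further: fluorescent Galphao held in activated GDP-AlF4 state binding bead-coupled RGS7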)). Details: at 10 µM, actives lie on both sides.

Compound | binding response (% of control)
Cn1c2ccc(F)cc2c2ncn(CC3CCCO3)c(=O)c21 (stereo not given) | inconclusive: 247%
CCCC(=O)C1=C(O)C(C(=O)OC)C(C)(C)CC1=NCCCCCC(=O)O (stereo not given) | inconclusive: 126%
CSc1cccc(CN2CCN(Cc3ccc(F)c(F)c3)C(CCO)C2)c1 (stereo not given) | inactive: 92.8%
C=CCN1C(=O)C(CC(=O)Nc2ccccc2)N(Cc2ccccn2)C1=S (stereo not given) | inactive: 100%
Oc1cccc(/C=N/NC(=S)NCCN2CCOCC2)c1O | inconclusive: 104%
CCOCCCNC(=O)/C(C#N)=C/c1ccc(C(=O)OC)cc1 | inconclusive: 142%
Cc1ccc(-c2[nH]ncc2/C=N/n2c(COc3ccccc3C)nc3ccccc3c2=O)cc1 | inactive: 105%
CC(C)(C)NC(=O)NC(=O)CN1CCN(C(c2ccccc2)c2ccccc2)CC1 | inconclusive: 93.8%
COc1ccc2c(C(=O)CCl)c[nH]c2c1 | inconclusive: 113%
C#CC(CC)(CC)NC(=S)Nc1ccc(S(N)(=O)=O)cc1 | inactive: 105%
Cc1cccc(N2CC(C(=O)O)CC2=O)c1C (stereo not given) | inconclusive: 93.7%
Cc1csc2c(N3CCN(C(=O)Nc4ccccc4)CC3)ncnc12 | inconclusive: 82%
O=C(NCc1ccccc1Cl)c1ccc(Br)o1 | inconclusive: 128%
O=S(=O)(Nc1ccccn1)c1ccc(Cl)c2ccccc12 | inconclusive: 101%
CCCc1ccc(OCc2ccccc2)c2c(=O)cc(C(=O)OCC)oc12 | inconclusive: 78.5%
O=S(=O)([N-]c1nc2ccccc2nc1-[n+]1ccccc1)c1ccc(F)cc1 | inconclusive: 106%
Oc1ccc(/C=N/Nc2nn3cnnc3c3ccccc23)cc1 | inconclusive: 81.5%
Cc1cc(=O)oc2cc(NC(=O)C3CCCC3)ccc12 | inconclusive: 121%
COc1ccc(C(C(=O)NC(C)(C)C)N(C(=O)CNC(=O)c2cccs2)c2ccc(NC(C)=O)cc2)cc1OC (stereo not given) | inactive: 90.3%
Cc1ccc(NC(=S)N(CCN2CCCCC2)Cc2ccco2)cc1Cl | inconclusive: 101%
CCCCOc1ccc(/C=C/C(=O)NC2=Nc3ccccc3NC(C)=C2C(=O)OCC)cc1OC | inactive: 102%
CCC1=C2CC[C@H]3C(=O)N(c4ccccc4)C(=O)[C@H]3[C@H]2[C@@]2(C)C(=NCC(=O)OC)OC(=O)N2C1=O | inconclusive: 102%
CCOCCCNC(=O)c1c[nH]c2ccc(OCC)cc2c1=O | inconclusive: 87.3%
O=C(CSc1nnc2c(n1)[nH]c1ccc(F)cc12)N1CCOCC1 | inconclusive: 94.2%
Cn1c(O)c(N=NC(=N)N)c2ccccc21 | inconclusive: 127%

Shown field by field: entries from further up.
O=S(=O)(Nc1ccccn1)c1ccc(Cl)c2ccccc12
  binding response (% of control): inconclusive: 101%
CCCc1ccc(OCc2ccccc2)c2c(=O)cc(C(=O)OCC)oc12
  binding response (% of control): inconclusive: 78.5%
